According to patent US10954262B2, “Tunicamycin analogues” (Oxford University Innovation Limited, priority 2017, dated 2021):
Some entries share one result that the patent states for a list of compounds.

Test: Solubility testing / formulation
Assay type: physicochemical
Details: aqueous solution of Tween 80 (0.5%) and sodium hydroxide (0.1-0.5%)

CCCCCCCC(=O)NC1C(OC2OC(C[C@@H](O)[C@H]3O[C@@H](n4ccc(=O)[nH]c4=O)[C@H](O)[C@@H]3O)C(O)C(O)[C@H]2NC(=O)CCCCCCC)OC(CO)[C@@H](O)C1O (stereo partly shown) [Compound E3, Di-N-octanoyl-tunicamycin]
Concentration that can be dissolved: > 10000 µg/mL
